Results as given in PubChem BioAssay AID2685 (National Center for Advancing Translational Sciences (NCATS), 2010).
The other results are listed elsewhere or left out. The main result of the screen is listed elsewhere. These columns were measured beside it and carry no call. Compounds called inactive in the main read-out are mostly missing here. Potencies come from curve fits of mixed quality, noted in brackets.

Experiment: qHTS Assay for Lipid Storage Modulators in Drosophila S3 Cells;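 on cell number change: cells counted by Cell Tracker Red CMTPX staining in the red channel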
Settings: BODIPY lipid droplet fluorescence, 18-24 h; for cell number change: measured here: cell count max response, cells fed with added oleic acid
How it was run: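 Drosophila S3 cells loaded with oleic acid (400 uM, as added) and compounds at several concentrations; lipid droplets imaged by 488-nm laser-scanning cytometry, 500–530 nm intensity and object ratio to cell channel. Percent activity normalized to 20 uM Triacsin C.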

[1] = measured here: lipid fluorescence (Fed channel) AC50, cells fed with added oleic acid
[2] = measured here: cell number channel AC50, cells fed with added oleic acid

Row | Structure (SMILES) | AC50 [1] | cell number change [%] | AC50 [2]
1 | COc1ccc(C(=O)NNC(=O)CN(C)S(=O)(=O)c2ccc(Cl)cc2)c(OC)c1OC | 20.6 µM [falling, single point] | – | –
2 | Cc1cccc(C(=O)NCC(=O)OCC(=O)N2CC3(C)CC2CC(C)(C)C3)c1 (stereo unspecified) | – | -0.157 | –
3 | COc1cccc(/C=C/c2n[nH]c(=O)c(C#N)c2C)c1 | – | -4.5 | –
4 | Cc1ccc(NC(=O)CS(=O)CC(=O)Nc2ccc3c(c2)OCO3)cc1Cl (stereo unspecified) | – | 31.1 | 1.84 µM [rising, full curve, poor fit]
5 | COc1ccccc1C1C2=C(N=c3s/c(=C/c4cccc(OCC(=O)O)c4)c(=O)n31)c1ccccc1CC2 (stereo unspecified) | – | 45.5 | 5.8 µM [rising, partial curve]
6 | CCOC(=O)c1cc(=O)n(-c2ccc(Cl)cc2C)[nH]1 | 8.2 µM [rising, partial curve] | 10.5 | –
7 | Cn1cc(S(=O)(=O)Nc2ccc(OC(F)(F)F)cc2)c(=O)n(C)c1=O | 6.51 µM [falling, single point] | -17.5 | 6.51 µM [falling, single point]
8 | O=C1CS/C(=C\[N+](=O)[O-])N1c1ccc(OC(F)(F)F)cc1 | – | -20.5 | –
9 | COc1ccc(C(=O)N(C(C)C)C(C)C)c(OC)c1 | – | 21.7 | –
10 | O=S(=O)(/N=C(/Nc1cccc2ccccc12)c1ccccc1)c1ccc(F)cc1 | 5.8 µM [falling, full curve] | -32 | 2.31 µM [falling, full curve, poor fit]
11 | O=C(NNc1c2ccccc2nc2ccccc12)C(O)c1ccccc1 (stereo unspecified) | – | -22.4 | –
12 | COc1ccc(-c2ccc3c(c2)S(=O)(=O)c2cccc(C(=O)NC[C@@H]4CCCO4)c2C3=O)cc1OC | 29.1 µM [falling, single point] | -88.7 | 20.6 µM [falling, partial curve]
13 | O=C(c1cn(CC(=O)N2CCCC2)c2ccccc12)C1CCCCC1 | – | 8.25 | –
14 | O=C(CCC(=O)c1ccc(Oc2ccccc2)cc1)Nc1cccc(Cl)c1Cl | 0.92 µM [rising, full curve, poor fit] | -0.145 | –
15 | CC(C)(C)n1nnnc1C(c1ccccc1F)N1CCN(C2CCCC2)CC1 (stereo unspecified) | 18.4 µM [rising, single point] | 8.26 | –
16 | CCOc1cc(-c2ccc(N)c(OCC)c2)ccc1N | – | – | 0.58 µM [rising, single point]

Row | Structure (SMILES) | AC50 [1] | cell number change [%] | AC50 [2]
17 | O=c1[nH]c2ccccc2cc1CN(c1ccccc1)S(=O)(=O)c1ccccc1 | – | -0.235 | –
18 | CCc1nnc(NC(=O)c2ccc(F)c(S(=O)(=O)N3CCCCC3)c2)s1 | – | -21.8 | –
19 | OC[C@H]1O[C@H](OCc2ccccc2)[C@H](O[C@@H]2OC[C@@H](O)[C@H](O)[C@H]2O)[C@@H](O)[C@@H]1O | 29.1 µM [falling, single point] | -35.1 | 29.1 µM [falling, single point]
20 | COCCn1c(SCC(=O)N2CC(=O)Nc3ccccc32)nc2ccccc21 | 1.64 µM [falling, single point] | – | 0.326 µM [falling, partial curve, poor fit]
21 | COc1cccc(-n2c(Cc3cc(=O)[nH]c(=O)[nH]3)nnc2SCc2cccc(C(F)(F)F)c2)c1 | 0.291 µM [rising, full curve, poor fit] | 33.4 | 0.58 µM [rising, full curve]
22 | COc1ccc(F)cc1S(=O)(=O)N1CCN(Cc2ccc3c(c2)OCO3)CC1 | – | -11.6 | –
23 | C=CCNC(=O)c1ccc(N(Cc2ccc(Cl)cc2)S(C)(=O)=O)cc1 | 29.1 µM [falling, single point] | -3.65 | –
24 | Cc1cccc(NC(=S)NCc2ccc3c(c2)OCO3)c1C | 6.51 µM [rising, single point] | 76.2 | 18.4 µM [rising, single point]
25 | Cn1c(=NC(=O)CCS(=O)(=O)c2ccccc2)sc2cc(F)ccc21 | 6.51 µM [rising, single point] | 4.98 | –
26 | COc1cccc(C(=O)NNC2OC(CO)C(O)C2O)c1 (stereo unspecified) | 1.46 µM [rising, partial curve, poor fit] | – | –
27 | Cc1ccc(C(=O)NC2CC3CCC(C2)N3C)cc1 (stereo unspecified) | – | -2.62 | 0.13 µM [falling, full curve, poor fit]
28 | Cc1cccc(-c2n[nH]c([N+](=O)[O-])n2)c1 | 0.92 µM [falling, full curve, poor fit] | – | –
29 | COc1cc(/C=N/NC(=O)CC#N)ccc1Oc1nc(Cl)ncc1F | – | -10.3 | –
30 | CCCCNC(=O)CCc1nc2cccnc2n1Cc1ccccc1 | – | 8.33 | –
31 | COc1ccc(NC(=O)Cn2cc(C#N)c3ccccc32)cc1 | 18.4 µM [rising, partial curve, poor fit] | 68.9 | 14.6 µM [rising, partial curve, poor fit]
32 | COC(=O)Cn1cc(C(=O)C2CC2)c2ccccc21 | – | -6.23 | 1.16 µM [falling, full curve, poor fit]

Of the compounds above, these contain a CF3 group:
Row | Structure (SMILES) | AC50 [1] | cell number change [%] | AC50 [2]
7 | Cn1cc(S(=O)(=O)Nc2ccc(OC(F)(F)F)cc2)c(=O)n(C)c1=O | 6.51 µM [falling, single point] | -17.5 | 6.51 µM [falling, single point]
8 | O=C1CS/C(=C\[N+](=O)[O-])N1c1ccc(OC(F)(F)F)cc1 | – | -20.5 | –
21 | COc1cccc(-n2c(Cc3cc(=O)[nH]c(=O)[nH]3)nnc2SCc2cccc(C(F)(F)F)c2)c1 | 0.291 µM [rising, full curve, poor fit] | 33.4 | 0.58 µM [rising, full curve]
